This assay deals with recombinant human transferrin receptor 1 (human) (UniProt P02786). Briefly: ELISA before and after 9 days at 40 C.

No constants are given. Whether binding was seen depends on the method and setting. Some entries that bind do so weakly or less than the wild type.

The results in this text go back to patent US20230051954A1.

B1: humanized anti-TfR Fab 5H12 (VH5-C33Y/Vk4) (Fab, V domains shown)
VH: QVQLVQSGAEVKKPGASVKVSCKASGYSFTDYYINWVRQAPGQGLEWMGWIYPGSGNTRYSERFKGRVTITRDTSASTAYMELSSLRSEDTAVYYCAREDYYPYHGMDYWGQGTLVTVSS
VL: DIVMTQSPDSLAVSLGERATINCRASESVDGYDNSFMHWYQQKPGQPPKLLIFRASNLESGVPDRFSGSGSGTDFTLTISSLQAEDVAVYYCQQSSEDPWTFGQGTKLEIKR
Consider B1, for which the binding entry is reported as “binds”.
